Laboratory results taken from article PMC4092868.
No constants are given. Whether binding was seen depends on the method and setting. In cells and extracts the contact can be indirect. For some of these results: Sequences can lack the tags named with a protein.

Legend:
Test in all cases: pull-down; T7-Irc22 co-expressed with GST fusions in wild-type yeast; cell extracts incubated with glutathione-Sepharose 4B in lysis buffer (20 mM HEPES pH 7.5, 100 mM NaCl, 0.5% Nonidet P-40, 1 mM EDTA) for 1 h at 4 °C, three washes; immunoblot with anti-T7
[1] = target: Dsk2 UBA domain alone (328-373) (S. cerevisiae) (UniProt P48510)
[2] = target: T1, Dsk2 middle stretch alone (78-335) (S. cerevisiae) (UniProt P48510)
T1 sequence: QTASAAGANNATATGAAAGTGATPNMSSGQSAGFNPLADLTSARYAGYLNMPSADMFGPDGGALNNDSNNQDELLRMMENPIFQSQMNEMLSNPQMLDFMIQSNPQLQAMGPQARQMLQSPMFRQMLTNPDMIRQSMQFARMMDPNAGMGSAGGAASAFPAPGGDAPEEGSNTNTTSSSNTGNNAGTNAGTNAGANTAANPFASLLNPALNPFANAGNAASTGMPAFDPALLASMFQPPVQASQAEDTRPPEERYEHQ

[3] = target: T2, GST-Ddi1, expressed in yeast (S. cerevisiae) (UniProt P40087)
T2 sequence: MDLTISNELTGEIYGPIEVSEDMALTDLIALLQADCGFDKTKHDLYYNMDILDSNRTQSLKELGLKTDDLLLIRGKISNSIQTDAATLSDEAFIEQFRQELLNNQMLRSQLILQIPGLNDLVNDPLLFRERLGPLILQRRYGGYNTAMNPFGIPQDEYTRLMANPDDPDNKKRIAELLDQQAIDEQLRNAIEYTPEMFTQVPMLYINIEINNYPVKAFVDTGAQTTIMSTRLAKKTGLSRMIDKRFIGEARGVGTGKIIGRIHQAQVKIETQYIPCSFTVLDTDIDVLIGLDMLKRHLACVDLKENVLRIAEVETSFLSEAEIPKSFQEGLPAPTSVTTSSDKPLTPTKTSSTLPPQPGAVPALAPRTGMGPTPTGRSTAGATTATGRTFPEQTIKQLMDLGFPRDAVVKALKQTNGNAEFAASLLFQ

[4] = target: T3, GST-Rad23, expressed in yeast (S. cerevisiae) (UniProt P32628)
T3 sequence: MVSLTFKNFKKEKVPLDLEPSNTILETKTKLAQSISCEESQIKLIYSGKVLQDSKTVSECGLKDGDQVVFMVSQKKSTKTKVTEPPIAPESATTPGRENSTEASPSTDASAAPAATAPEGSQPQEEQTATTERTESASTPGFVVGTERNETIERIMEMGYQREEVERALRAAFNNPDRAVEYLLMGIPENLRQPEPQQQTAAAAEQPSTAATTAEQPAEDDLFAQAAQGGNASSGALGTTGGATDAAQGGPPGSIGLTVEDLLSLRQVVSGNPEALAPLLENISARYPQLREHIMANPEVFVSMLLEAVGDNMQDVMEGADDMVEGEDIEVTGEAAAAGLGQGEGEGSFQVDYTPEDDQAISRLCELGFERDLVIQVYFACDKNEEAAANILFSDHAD

binding [1]: no binding
binding [2]: no binding
binding [3]: no binding
binding [4]: no binding
B1: T7-Irc22 (protein, UniProt P40006 25-225)
chain: NNSDNVEHEQEVAEAVAPPSINIEVKYDVVGKESENHDSFLEFYAEDTATLAYNVTNWEDTNITIFGVNGTIVTYPHGYPVADITGASIGPYEMEVNGTSKFGQDVTLNLPEGQYFLIPFLLASRFDEIVRIAAPPTLFEIVSPPISFFNPQFLSVQVIFLAIIGGVSYYYMKSKTNQRPSKKSATVKKVDESWLPETYKK
